The numbers were not newly measured in patent US20040116382A1, “Food products containing cyclodextrins having beneficial hypocholesterolemic effects and method of making and communicating the benefit of such products” (priority 2002, published 2004), which cites them from elsewhere.

The conditions of this data set: at 25° C.

Regarding `OC[C@H]1O[C@@H]2O[C@H]3[C@H](O)[C@@H](O)[C@@H](O[C@H]4[C@H](O)[C@@H](O)[C@@H](O[C@H]5[C@H](O)[C@@H](O)[C@@H](O[C@H]6[C@H](O)[C@@H](O)[C@@H](O[C@H]7[C@H](O)[C@@H](O)[C@@H](O[C@H]1[C@H](O)[C@H]2O)O[C@@H]7CO)O[C@@H]6CO)O[C@@H]5CO)O[C@@H]4CO)O[C@@H]3CO` [alpha-cyclodextrin], the solubility is listed as 14 gm/100 mil.
